Chains of the proteins cited; added tags and fusions are not shown. Lines headed by an entry give the natural chain unless they say otherwise; changes in a name come on top.
UniProt Q9ESF1: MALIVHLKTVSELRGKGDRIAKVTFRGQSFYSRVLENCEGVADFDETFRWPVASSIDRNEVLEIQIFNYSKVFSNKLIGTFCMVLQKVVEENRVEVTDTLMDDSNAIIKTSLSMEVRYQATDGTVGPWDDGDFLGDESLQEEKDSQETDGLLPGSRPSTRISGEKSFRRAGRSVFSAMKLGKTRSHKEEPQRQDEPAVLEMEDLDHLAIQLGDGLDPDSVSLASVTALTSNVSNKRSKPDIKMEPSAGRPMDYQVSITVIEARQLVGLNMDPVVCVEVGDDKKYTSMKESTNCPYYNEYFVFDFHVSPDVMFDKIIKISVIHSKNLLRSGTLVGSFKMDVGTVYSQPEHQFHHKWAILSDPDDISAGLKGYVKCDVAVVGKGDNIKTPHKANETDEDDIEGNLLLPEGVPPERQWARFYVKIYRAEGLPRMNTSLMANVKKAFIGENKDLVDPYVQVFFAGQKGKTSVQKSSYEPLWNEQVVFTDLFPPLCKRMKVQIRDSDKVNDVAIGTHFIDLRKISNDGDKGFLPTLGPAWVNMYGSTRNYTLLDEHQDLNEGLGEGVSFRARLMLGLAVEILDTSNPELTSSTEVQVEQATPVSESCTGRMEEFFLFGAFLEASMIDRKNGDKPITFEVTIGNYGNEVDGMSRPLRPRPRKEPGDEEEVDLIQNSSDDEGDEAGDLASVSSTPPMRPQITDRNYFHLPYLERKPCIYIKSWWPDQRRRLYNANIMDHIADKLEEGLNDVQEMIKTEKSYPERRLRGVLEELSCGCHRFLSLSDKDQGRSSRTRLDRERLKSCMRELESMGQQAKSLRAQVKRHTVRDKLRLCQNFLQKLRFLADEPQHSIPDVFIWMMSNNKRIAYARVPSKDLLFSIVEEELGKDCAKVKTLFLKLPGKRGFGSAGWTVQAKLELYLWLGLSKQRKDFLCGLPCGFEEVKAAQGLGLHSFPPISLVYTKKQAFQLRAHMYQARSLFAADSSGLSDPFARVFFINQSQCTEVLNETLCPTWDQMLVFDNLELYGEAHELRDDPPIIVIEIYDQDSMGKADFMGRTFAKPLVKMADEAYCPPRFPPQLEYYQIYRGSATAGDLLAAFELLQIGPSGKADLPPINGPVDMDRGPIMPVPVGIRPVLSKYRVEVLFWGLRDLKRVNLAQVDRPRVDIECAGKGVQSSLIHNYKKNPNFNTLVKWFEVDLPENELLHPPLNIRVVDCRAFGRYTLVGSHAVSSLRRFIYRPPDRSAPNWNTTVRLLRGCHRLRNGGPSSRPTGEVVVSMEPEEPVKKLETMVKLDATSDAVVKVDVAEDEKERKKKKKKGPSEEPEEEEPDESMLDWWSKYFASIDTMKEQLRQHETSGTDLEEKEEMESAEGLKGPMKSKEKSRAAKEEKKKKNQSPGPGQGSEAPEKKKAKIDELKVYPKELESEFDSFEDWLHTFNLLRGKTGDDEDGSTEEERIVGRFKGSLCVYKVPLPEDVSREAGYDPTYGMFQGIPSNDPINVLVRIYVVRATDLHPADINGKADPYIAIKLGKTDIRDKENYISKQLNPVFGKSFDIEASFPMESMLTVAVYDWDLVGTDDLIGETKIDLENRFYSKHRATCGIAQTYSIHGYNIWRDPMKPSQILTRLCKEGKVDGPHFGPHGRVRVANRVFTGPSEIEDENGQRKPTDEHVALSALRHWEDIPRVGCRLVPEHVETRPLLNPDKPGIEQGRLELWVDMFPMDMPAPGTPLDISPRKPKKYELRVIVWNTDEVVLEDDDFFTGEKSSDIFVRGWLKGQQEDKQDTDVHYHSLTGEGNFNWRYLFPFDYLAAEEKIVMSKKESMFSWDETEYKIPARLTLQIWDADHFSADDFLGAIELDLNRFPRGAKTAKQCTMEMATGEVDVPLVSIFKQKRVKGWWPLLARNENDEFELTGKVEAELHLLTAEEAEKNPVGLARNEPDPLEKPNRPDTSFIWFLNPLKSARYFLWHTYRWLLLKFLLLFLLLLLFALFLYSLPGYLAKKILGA

According to PMC5632675:

What was measured:
[1] = target: mouse otoferlin fragment C2ABC-HA (aa 1-632) (mouse) (UniProt Q9ESF1); test: co-IP; HEK293 cells co-transfected with CaMKIIδ-mcherry and C2ABC-HA, C2DEF-HA or both; lysate in TBS pH 7.4 on anti-HA agarose, 2 h at 4°C, washed with TBS-T; blots with anti-HA and anti-RFP
[2] = target: mouse otoferlin fragment C2DEF-HA (aa 933-1920) (mouse) (UniProt Q9ESF1); test: as above

Question: What does the source list for “full-length mcherry-tagged mouse CaMKIIδ (from UniProt Q6PHZ2-1 1-499) (enzyme)”?
Answer: binding [1]: binds; binding [2]: binds weakly

These are yes or no findings as the source states them, for the method shown. Binding seen in cells or lysates may run through a third protein. A result given as binding can be weak or reduced; the word gives no strength.
